{"source": "PubChem BioAssay AID248", "about": "(DTP/NCI, 2004)", "test_system": "L1210 leukemia ip in BDF1 mice, survival T/C", "test": "NCI In Vivo Anticancer Drug Screen. Data for tumor model L1210 Leukemia (intraperitoneal) in B6D2F1 (BDF1) mice", "details": "T/C endpoint: mean survival time, higher T/C = longer survival", "key": {"[1]": {"details": "dose: 2.5 mg/kg/injection, schedule: Q01DX Z (im), vehicle: saline"}, "[2]": {"details": "dose: 5.0 mg/kg/injection, schedule: Q01DX Z (im), vehicle: saline"}}, "note": "The list is a part of this screen's results and no random one: it is rich in T/C values a quarter to a half above the control, in often repeated tests (any T/C) and in doses without a T/C. Further doses and runs are listed elsewhere. T/C: endpoint of the treated group in % of that of the vehicle group. Some doses have a count of surviving animals in place of a T/C: the source holds a T/C of zero for them, seemingly a mark for toxic or unscored doses. Survivors were counted at the toxicity check, usually on the fifth day, unless a day is given; later deaths do not show. Schedules are NCI's codes, read here as Q, the interval in days (D) or hours (H), X, the number of doses. Some entries were tested several times; the values are given in rising order. Some schedule codes hold Z or #, which are not explained here. Where survival is the endpoint, the PubChem record calls one and a half times the control and up active, and a quarter to a half above the control has no call in these data; cut-offs in other NCI protocols can differ. Some T/C values are followed by the survivors on the day toxicity was checked, most often the fifth; without a count, all were alive then.", "data": [{"smiles": "N#[N+]c1cnc([O-])[nH]c1=O", "values": [{"measurement": "T/C", "setting": "dose: 1.0 mg/kg/injection, schedule: Q01DX009 (ip), vehicle: carboxymethylcellulose (CMC)", "value": "126 % of control"}, {"measurement": "T/C", "setting": "dose: 1.0 mg/kg/injection, schedule: Q01DX009 (ip), vehicle: saline", "value": "126 % of control"}, {"measurement": "survivor count", "setting": "dose: 1.2 mg/kg/injection, schedule: Q01DX Z (im), vehicle: saline", "value": "2 of 6"}, {"measurement": "T/C", "setting": "dose: 1.25 mg/kg/injection, schedule: Q#A X Z (ip), vehicle: methylcellulose (MC)", "value": "133 % of control"}, {"measurement": "T/C", "setting": "dose: 1.89 mg/kg/injection, schedule: Q03DX Z (ip), vehicle: methylcellulose (MC)", "value": "126 % of control"}, {"measurement": "T/C", "setting": "dose: 2.0 mg/kg/injection, schedule: Q01DX009 (ip), vehicle: carboxymethylcellulose (CMC)", "value": "132 % of control"}, {"measurement": "T/C", "setting": "dose: 2.0 mg/kg/injection, schedule: Q01DX009 (ip), vehicle: saline", "value": "127 and 136 % of control"}, {"measurement": "T/C", "setting": "dose: 2.5 mg/kg/injection, schedule: Q01DX005 (ip), vehicle: Klucel (hydroxypropylcellulose) (HPC)", "value": "141 % of control"}, {"measurement": "T/C", "setting": "dose: 2.5 mg/kg/injection, schedule: Q01DX005 (ip), vehicle: alkali diluted with saline", "value": "131 % of control"}, {"measurement": "T/C", "setting": "dose: 2.5 mg/kg/injection, schedule: Q01DX005 (ip), vehicle: saline", "value": "138 % of control"}, {"measurement": "T/C", "setting": "dose: 2.5 mg/kg/injection, schedule: Q01DX009 (ip), vehicle: saline", "value": "116, 118, 125, 144 % of control"}, {"measurement": "T/C", "setting": "dose: 2.5 mg/kg/injection, schedule: Q01DX010 (ip), vehicle: saline", "value": "131 % of control"}, {"measurement": "T/C", "setting": "[1]", "value": "127 % of control"}, {"measurement": "survivor count", "setting": "[1]", "value": "1 of 6"}, {"measurement": "T/C", "setting": "dose: 2.5 mg/kg/injection, schedule: Q01DX Z (ip), vehicle: carboxymethylcellulose (CMC)", "value": "130 % of control"}, {"measurement": "T/C", "setting": "dose: 2.5 mg/kg/injection, schedule: Q#A X Z (ip), vehicle: methylcellulose (MC)", "value": "133 % of control"}, {"measurement": "T/C", "setting": "dose: 4.0 mg/kg/injection, schedule: Q01DX001 (ip), vehicle: carboxymethylcellulose (CMC)", "value": "129 % of control"}, {"measurement": "T/C", "setting": "dose: 4.0 mg/kg/injection, schedule: Q01DX009 (ip), vehicle: carboxymethylcellulose (CMC)", "value": "134 % of control"}, {"measurement": "T/C", "setting": "dose: 4.0 mg/kg/injection, schedule: Q01DX009 (ip), vehicle: saline", "value": "127 [5 of 6 alive] and 131 % of control"}, {"measurement": "T/C", "setting": "dose: 4.0 mg/kg/injection, schedule: Q## X002 (ip), vehicle: carboxymethylcellulose (CMC)", "value": "126 % of control"}, {"measurement": "T/C", "setting": "dose: 4.0 mg/kg/injection, schedule: Q## X003 (ip), vehicle: carboxymethylcellulose (CMC)", "value": "132 % of control"}, {"measurement": "T/C", "setting": "dose: 4.4 mg/kg/injection, schedule: Q07DX Z (ip), vehicle: methylcellulose (MC)", "value": "128 % of control"}, {"measurement": "T/C", "setting": "dose: 5.0 mg/kg/injection, schedule: Q01DX005 (ip), vehicle: Klucel (hydroxypropylcellulose) (HPC)", "value": "144 % of control"}, {"measurement": "T/C", "setting": "dose: 5.0 mg/kg/injection, schedule: Q01DX005 (ip), vehicle: alkali diluted with saline", "value": "143 % of control"}, {"measurement": "T/C", "setting": "dose: 5.0 mg/kg/injection, schedule: Q01DX005 (ip), vehicle: saline", "value": "147 % of control"}, {"measurement": "T/C", "setting": "dose: 5.0 mg/kg/injection, schedule: Q01DX009 (ip), vehicle: saline", "value": "117, 120, 129, 134 % of control [5 of 6 alive]"}, {"measurement": "T/C", "setting": "dose: 5.0 mg/kg/injection, schedule: Q01DX010 (ip), vehicle: saline", "value": "129 and 139 % of control"}, {"measurement": "T/C", "setting": "dose: 5.0 mg/kg/injection, schedule: Q01DX015 (ip), vehicle: alkali diluted with saline", "value": "141 % of control"}, {"measurement": "T/C", "setting": "[2]", "value": "140 % of control"}, {"measurement": "survivor count", "setting": "[2]", "value": "0 of 6"}, {"measurement": "T/C", "setting": "dose: 5.0 mg/kg/injection, schedule: Q01DX Z (ip), vehicle: carboxymethylcellulose (CMC)", "value": "139 % of control"}, {"measurement": "T/C", "setting": "dose: 5.0 mg/kg/injection, schedule: Q01DX Z (sc), vehicle: steroid suspending solution", "value": "127 % of control"}, {"measurement": "T/C", "setting": "dose: 5.0 mg/kg/injection, schedule: Q04DX003 (ip), vehicle: alkali diluted with saline", "value": "125 % of control"}, {"measurement": "T/C", "setting": "dose: 5.0 mg/kg/injection, schedule: Q04DX003 (ip), vehicle: saline", "value": "125 % of control"}, {"measurement": "T/C", "setting": "dose: 5.0 mg/kg/injection, schedule: Q#A X Z (ip), vehicle: methylcellulose (MC)", "value": "149 % of control"}, {"measurement": "T/C", "setting": "dose: 7.5 mg/kg/injection, schedule: Q03DX Z (ip), vehicle: methylcellulose (MC)", "value": "133 % of control"}, {"measurement": "T/C", "setting": "dose: 7.7 mg/kg/injection, schedule: Q01DX015 (ip), vehicle: alkali diluted with saline", "value": "142 % of control"}, {"measurement": "T/C", "setting": "dose: 8.0 mg/kg/injection, schedule: Q01DX001 (ip), vehicle: carboxymethylcellulose (CMC)", "value": "135 % of control"}, {"measurement": "T/C", "setting": "dose: 8.0 mg/kg/injection, schedule: Q01DX009 (ip), vehicle: saline", "value": "143 % of control"}, {"measurement": "T/C", "setting": "dose: 8.0 mg/kg/injection, schedule: Q## X002 (ip), vehicle: carboxymethylcellulose (CMC)", "value": "134 % of control"}, {"measurement": "T/C", "setting": "dose: 8.0 mg/kg/injection, schedule: Q## X003 (ip), vehicle: carboxymethylcellulose (CMC)", "value": "135 % of control"}, {"measurement": "T/C", "setting": "dose: 8.0 mg/kg/injection, schedule: Q## X008 (ip), vehicle: carboxymethylcellulose (CMC)", "value": "134 % of control"}, {"measurement": "T/C", "setting": "dose: 10.0 mg/kg/injection, schedule: Q01DX005 (ip), vehicle: alkali diluted with saline", "value": "149 % of control"}, {"measurement": "T/C", "setting": "dose: 10.0 mg/kg/injection, schedule: Q01DX005 (ip), vehicle: saline", "value": "140 % of control"}, {"measurement": "T/C", "setting": "dose: 10.0 mg/kg/injection, schedule: Q01DX009 (ip), vehicle: saline", "value": "131, 148, 171 [4 of 6 alive], 173 % of control"}, {"measurement": "T/C", "setting": "dose: 10.0 mg/kg/injection, schedule: Q01DX010 (ip), vehicle: saline", "value": "147 % of control"}, {"measurement": "T/C", "setting": "dose: 10.0 mg/kg/injection, schedule: Q01DX Z (ip), vehicle: carboxymethylcellulose (CMC)", "value": "145 % of control"}, {"measurement": "survivor count", "setting": "dose: 10.0 mg/kg/injection, schedule: Q01DX Z (ip), vehicle: saline", "value": "2 of 6"}, {"measurement": "T/C", "setting": "dose: 10.0 mg/kg/injection, schedule: Q01DX Z (sc), vehicle: steroid suspending solution", "value": "133 % of control"}, {"measurement": "T/C", "setting": "dose: 10.0 mg/kg/injection, schedule: Q04DX003 (ip), vehicle: alkali diluted with saline", "value": "131 % of control"}, {"measurement": "T/C", "setting": "dose: 10.0 mg/kg/injection, schedule: Q04DX003 (ip), vehicle: saline", "value": "131 [5 of 6 alive] and 139 % of control"}, {"measurement": "T/C", "setting": "dose: 10.0 mg/kg/injection, schedule: Q#A X Z (ip), vehicle: methylcellulose (MC)", "value": "147 % of control"}, {"measurement": "T/C", "setting": "dose: 11.5 mg/kg/injection, schedule: Q01DX015 (ip), vehicle: alkali diluted with saline", "value": "143 % of control"}, {"measurement": "T/C", "setting": "dose: 12.0 mg/kg/injection, schedule: Q01DX001 (ip), vehicle: alkali diluted with saline", "value": "141 % of control"}, {"measurement": "T/C", "setting": "dose: 15.0 mg/kg/injection, schedule: Q01DX001 (ip), vehicle: alkali diluted with saline", "value": "131 % of control"}, {"measurement": "T/C", "setting": "dose: 15.0 mg/kg/injection, schedule: Q01DX001 (ip), vehicle: saline", "value": "127 % of control [5 of 6 alive]"}, {"measurement": "T/C", "setting": "dose: 16.0 mg/kg/injection, schedule: Q01DX001 (ip), vehicle: carboxymethylcellulose (CMC)", "value": "142 % of control"}, {"measurement": "T/C", "setting": "dose: 16.0 mg/kg/injection, schedule: Q01DX009 (ip), vehicle: carboxymethylcellulose (CMC)", "value": "135 % of control [9 of 10 alive]"}, {"measurement": "survivor count", "setting": "dose: 16.0 mg/kg/injection, schedule: Q01DX009 (ip), vehicle: saline", "value": "1 of 6 and 3 of 6"}]}]}
